Data as given in PubChem BioAssay AID2685 (National Center for Advancing Translational Sciences (NCATS), 2010).
In all, about 320,000 compounds went through this assay and about 2,100 (0.66%) were called active. The shares of active, inactive and inconclusive entries below differ from those in the screen. Calls come from the whole dose curve; as a rule, active = well fitted inhibition curve with a large enough effect in the signal ratio, with a control signal flat (not every such curve was filed as active); inconclusive = small, poorly fitted or top-dose-only effect, or effect the other way, or a change in a side signal; inactive = flat fitted curve, though single readings scatter; the % refers to the signal ratio. Potencies of inconclusive entries are doubtful fits and often do not repeat.

experiment: qHTS Assay for Lipid Storage Modulators in Drosophila S3 Cells; conditions: BODIPY lipid droplet fluorescence, 18-24 h, cells fed with added oleic acid; lipid storage change, negative = inhibition: at 46.1 µM (top of the series) unless noted
Summary of the method: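 Laser-scanning cytometry quantifies lipid droplet accumulation (500–530 nm total intensity; droplet/cell object ratio) in oleic acid-fed (400 uM added) Drosophila S3 cells treated with a concentration series. 20 uM Triacsin C defined 100% inhibition.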
% is set by controls: 0 for no effect and ±100 for the full control effect; potency is the fitted concentration of half-maximal effect.

Row | Structure (SMILES) | Potency | lipid storage change, negative = inhibition
1 | CCNC(=O)c1ccccc1NC(=O)C1CC(=O)N(C(C)C)C1 (configuration not stated) | inconclusive: 11.6 µM [activator, partial curve] | 
2 | COc1cc(C2C3=C(CC(C)(C)CC3=O)OC3=C2C(=O)CC(C)(C)C3)cc([N+](=O)[O-])c1O |  | inconclusive: 27.6%
3 | COc1ccc2cc(S(=O)(=O)N3CCCC(C)C3)ccc2c1 (configuration not stated) |  | inconclusive: -10.6%
4 | COc1cccc(CNc2ncnc3ccc(-c4c(C)noc4C)cc23)c1 | inconclusive: 14.6 µM [falling, single point] | 
5 | CCC1CN(C(=O)N2CCC(C(=O)NCCc3ccccc3OC)CC2)c2ccccc2O1 (configuration not stated) | active: 6.51 µM | 
6 | O=C(NNC(=O)C12CC3CC(CC(C3)C1)C2)c1ccccc1O | inconclusive: 29.1 µM [falling, single point] | 
7 | CC1(C)C2CCC(C2)C1(C)NC(=O)CNCc1cccs1 (configuration not stated) |  | inconclusive: 16.1%
8 | C[C@H]1CCC[C@@]2(O[C@@H](CCO)C[C@@H](O)[C@@H]2O)O1 |  | inconclusive: 10.7%
9 | COc1ccc(C(=O)c2cn[nH]c2-c2ccc(C)cc2O)cc1 |  | inconclusive: -6.05%
10 | CC1(C)C(c2cccs2)=[N+]([O-])C2(CCCCC/C2=N\O)N1O (configuration not stated) |  | inconclusive: 11.5%
11 | CC12CCC(=O)N1C(C(=O)Nc1cccc(F)c1)CS2 (configuration not stated) |  | inconclusive: -32.6%
12 | O=C(/C=C/c1ccccc1)OCC(=O)N1CCN(c2ccccc2)CC1 |  | inconclusive
13 | CCc1cc(SC#N)ccc1N |  | inconclusive: 49.7%
14 | O=C(Cc1ccccc1)NCCc1ccc(Cl)cc1Cl | inconclusive: 29.1 µM [rising, single point] | 
15 | CCCCc1c(O)nc(SCC(=O)N2CCOCC2)n(-c2ccc(OC)cc2)c1=O | inconclusive: 2.59 µM [falling, partial curve, poor fit] | 
16 | O=C(CCn1c(=O)sc2ccccc21)Nc1nc2ccccc2s1 |  | inconclusive: 33.6%
17 | Cc1ccc(C(=O)Nc2ccc3cn[nH]c3c2)cc1S(=O)(=O)N1CCCCC1 |  | inconclusive: 147%
18 | O=C(NCc1ccco1)c1ccccc1Br |  | inconclusive: -66.9%
19 | OCC[C@H]1C[C@@H](O)[C@H](O)[C@@]2(CCc3ccccc3CO2)O1 | inconclusive: 14.6 µM [activator, partial curve] | 
20 | O=C(NC1=NCCS1)c1cccc(OC(F)F)c1 |  | inconclusive: 24.6%
21 | CC1(C)NC(=O)N(CCCCOc2ccccc2[N+](=O)[O-])C1=O | inconclusive: 23.1 µM [rising, partial curve, poor fit] | 
22 | Cc1ccccc1NC(=O)NNC(=O)c1ccc2ccccc2c1 |  | inconclusive: 23.6%
23 | CCOc1ccc2oc(C(=O)NNC(=O)c3csc(N4CCOCC4)n3)c(C)c2c1 |  | inconclusive: 0.143%
24 | O=c1[nH]c(CCC2CCCC2)nc2ccccc12 |  | inconclusive: 21.5%

Row | Structure (SMILES) | Potency | lipid storage change, negative = inhibition
25 | C=CCOc1ccc(CNc2ccc(NC(=O)CC(C)C)cc2)cc1OC |  | inconclusive: 21.8%
26 | COc1ccc(N(CC(C)C)S(=O)(=O)c2nnc(NC(=O)CC(C)C)s2)cc1 |  | inconclusive: -76.7%
27 | O=C(OCC(=O)c1ccc[nH]1)c1cncc(Br)c1 | inconclusive: 1.16 µM [activator, full curve] | 
28 | O=C(Nc1ccc(OCC(=O)N2CCOCC2)cc1)c1cc(F)c(F)cc1Cl | inconclusive: 29.1 µM [activator, single point] | 
29 | CCn1c(CNc2ccc(OC)cc2)nnc1SCC(=O)Nc1ccc(F)cc1 |  | inconclusive: -9.76%
30 | Cc1ccc(SCC(=O)NC(C)(C)C)cc1 | inconclusive: 1.64 µM [falling, full curve, poor fit] | 
31 | CN(C)/C=C/C(=O)c1cccc(Oc2ncccn2)c1 |  | inconclusive: -5.61%
32 | CCn1c(=O)c(C(=O)NCc2cccnc2)c(O)c2ccccc21 | inconclusive: 29.1 µM [activator, partial curve, poor fit] | 
33 | Cc1onc(-c2ccccc2)c1C(=O)N(Cc1ccco1)Cc1cccs1 |  | inconclusive: 14.2% [at 9.22 µM]
34 | COc1ccccc1OCc1nc(-c2cccc([N+](=O)[O-])c2)no1 | inconclusive: 8.2 µM [rising, partial curve, poor fit] | 
35 | Cc1ccc(S(=O)(=O)N2CCCCC2)cc1NC(=O)c1c(-c2ccccc2)noc1C |  | inconclusive: 20.8%
36 | CCOc1cc(C2C3=C(CCCC3=O)N(CC(=O)O)C3=C2C(=O)CCC3)ccc1OC | inconclusive: 29.1 µM [activator, partial curve, poor fit] | 
37 | COc1ccc(N(CC(=O)NCc2ccco2)S(=O)(=O)c2ccccc2)cc1 |  | inactive
38 | O=C(NC1CC1)C1CCCN1C(=O)NC1CCCCC1 (configuration not stated) |  | inconclusive: -0.538%
39 | COc1cccc(OCc2nnc(SCC(=O)OCc3ccccc3)o2)c1 |  | inconclusive: -3.58%
40 | Cc1oc(-c2ccccc2Cl)nc1CS(=O)CC(=O)NC1CC1 (configuration not stated) |  | inconclusive: 6.08%
41 | Cc1ccc(OCC(=O)N(C)CC(=O)Nc2ccc(Cl)c(C(F)(F)F)c2)c([N+](=O)[O-])n1 | inconclusive: 11.6 µM [falling, partial curve, poor fit] | 
42 | N#CCCn1cc(C(=O)Nc2ccccn2)c(-c2ccccc2)n1 |  | inconclusive: 9.94%
43 | CC(C)Cn1c2c(c(=O)[nH]c1=O)C(C(F)(F)F)(C(F)(F)F)N=C(CCC1CCCCC1)N2 | inconclusive: 0.103 µM [falling, full curve, poor fit] | 
44 | Cc1cc(=O)[nH]c(SCC(=O)Nc2c(C)n(C)n(-c3ccccc3)c2=O)n1 | inconclusive: 23.1 µM [activator, single point] | 
45 | CC1CCN(c2ccc(C(F)(F)F)cc2N)CC1 |  | inconclusive: -6.19%
46 | Cc1ccc(C2/C(=C(\O)c3ccc4c(c3)OCCO4)C(=O)C(=O)N2CCCN(C)C)o1 (configuration not stated) | inconclusive: 29.1 µM [falling, single point] | 
47 | COC(=O)c1cc(=O)n(-c2ccc(F)cc2)c(=Nc2ccc(F)cc2)s1 | inconclusive: 18.4 µM [falling, partial curve] | 

Entries from the list above containing an aryl methoxy group (13):
Row | Structure (SMILES) | Potency | lipid storage change, negative = inhibition
2 | COc1cc(C2C3=C(CC(C)(C)CC3=O)OC3=C2C(=O)CC(C)(C)C3)cc([N+](=O)[O-])c1O |  | inconclusive: 27.6%
3 | COc1ccc2cc(S(=O)(=O)N3CCCC(C)C3)ccc2c1 (configuration not stated) |  | inconclusive: -10.6%
4 | COc1cccc(CNc2ncnc3ccc(-c4c(C)noc4C)cc23)c1 | inconclusive: 14.6 µM [falling, single point] | 
5 | CCC1CN(C(=O)N2CCC(C(=O)NCCc3ccccc3OC)CC2)c2ccccc2O1 (configuration not stated) | active: 6.51 µM | 
9 | COc1ccc(C(=O)c2cn[nH]c2-c2ccc(C)cc2O)cc1 |  | inconclusive: -6.05%
15 | CCCCc1c(O)nc(SCC(=O)N2CCOCC2)n(-c2ccc(OC)cc2)c1=O | inconclusive: 2.59 µM [falling, partial curve, poor fit] | 
25 | C=CCOc1ccc(CNc2ccc(NC(=O)CC(C)C)cc2)cc1OC |  | inconclusive: 21.8%
26 | COc1ccc(N(CC(C)C)S(=O)(=O)c2nnc(NC(=O)CC(C)C)s2)cc1 |  | inconclusive: -76.7%
29 | CCn1c(CNc2ccc(OC)cc2)nnc1SCC(=O)Nc1ccc(F)cc1 |  | inconclusive: -9.76%
34 | COc1ccccc1OCc1nc(-c2cccc([N+](=O)[O-])c2)no1 | inconclusive: 8.2 µM [rising, partial curve, poor fit] | 
36 | CCOc1cc(C2C3=C(CCCC3=O)N(CC(=O)O)C3=C2C(=O)CCC3)ccc1OC | inconclusive: 29.1 µM [activator, partial curve, poor fit] | 
37 | COc1ccc(N(CC(=O)NCc2ccco2)S(=O)(=O)c2ccccc2)cc1 |  | inactive
39 | COc1cccc(OCc2nnc(SCC(=O)OCc3ccccc3)o2)c1 |  | inconclusive: -3.58%
